Measured values taken from paper doi:10.1101/2021.04.01.438015.
Like-named read-outs stand apart in the source and are kept apart here. These are yes or no findings as the source states them, for the method shown. In cells and extracts the contact can be indirect. Some binding calls cover weakened binding; strength is not graded here. For some assays here: Tags and fused reporters may be left off the sequences shown.

Sequences of proteins named here, by UniProt entry; tags and fusion partners are left off. Residues count along the entry.
UniProt Q9CWX2, residues 25-328: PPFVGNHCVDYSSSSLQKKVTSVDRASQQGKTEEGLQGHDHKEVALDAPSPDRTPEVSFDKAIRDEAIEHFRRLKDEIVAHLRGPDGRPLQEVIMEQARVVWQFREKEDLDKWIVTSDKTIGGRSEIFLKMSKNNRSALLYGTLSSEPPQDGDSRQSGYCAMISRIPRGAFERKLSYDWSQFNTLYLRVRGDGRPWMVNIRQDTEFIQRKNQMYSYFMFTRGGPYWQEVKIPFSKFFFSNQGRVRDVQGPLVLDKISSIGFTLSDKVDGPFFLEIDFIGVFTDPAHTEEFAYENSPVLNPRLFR
UniProt Q9QZH6, residues 49-435: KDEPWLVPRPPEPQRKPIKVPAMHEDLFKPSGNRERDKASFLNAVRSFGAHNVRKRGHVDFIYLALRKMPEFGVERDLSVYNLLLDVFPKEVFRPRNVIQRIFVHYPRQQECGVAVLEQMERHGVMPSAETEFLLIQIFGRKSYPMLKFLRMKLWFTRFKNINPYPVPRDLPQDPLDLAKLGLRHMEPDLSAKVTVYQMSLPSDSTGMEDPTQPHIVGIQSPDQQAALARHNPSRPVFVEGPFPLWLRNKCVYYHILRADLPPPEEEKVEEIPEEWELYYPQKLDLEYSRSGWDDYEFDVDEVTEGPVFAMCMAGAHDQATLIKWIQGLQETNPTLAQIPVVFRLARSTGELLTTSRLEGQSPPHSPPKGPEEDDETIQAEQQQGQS

How the values were obtained:
Assay in all cases: co-IP
[1] = biological target: T1, ACAD9, wild type, Myc tagged (UniProt Q8JZN5)
T1 sequence: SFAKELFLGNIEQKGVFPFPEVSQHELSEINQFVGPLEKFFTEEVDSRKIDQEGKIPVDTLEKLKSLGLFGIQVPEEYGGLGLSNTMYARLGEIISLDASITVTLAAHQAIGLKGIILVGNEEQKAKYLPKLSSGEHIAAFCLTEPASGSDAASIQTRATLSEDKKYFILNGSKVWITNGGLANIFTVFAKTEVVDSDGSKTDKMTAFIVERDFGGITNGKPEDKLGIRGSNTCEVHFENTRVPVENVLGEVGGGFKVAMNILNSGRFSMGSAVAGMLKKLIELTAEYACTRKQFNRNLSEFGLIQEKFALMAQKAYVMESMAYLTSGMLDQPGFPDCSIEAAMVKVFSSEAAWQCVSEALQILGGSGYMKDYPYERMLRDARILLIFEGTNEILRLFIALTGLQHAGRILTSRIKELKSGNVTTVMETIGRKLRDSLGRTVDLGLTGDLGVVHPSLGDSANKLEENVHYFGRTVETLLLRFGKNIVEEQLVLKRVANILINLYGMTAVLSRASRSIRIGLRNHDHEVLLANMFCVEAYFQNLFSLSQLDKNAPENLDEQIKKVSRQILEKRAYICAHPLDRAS

[2] = biological target: NDUFAF1, wild type, Myc tagged (UniProt Q9CWX2)
[3] = biological target: T2, TRAF6 (tumour necrosis factor (TNF) receptor associated factor 6), wild type, Myc tagged (UniProt P70196)
T2 sequence: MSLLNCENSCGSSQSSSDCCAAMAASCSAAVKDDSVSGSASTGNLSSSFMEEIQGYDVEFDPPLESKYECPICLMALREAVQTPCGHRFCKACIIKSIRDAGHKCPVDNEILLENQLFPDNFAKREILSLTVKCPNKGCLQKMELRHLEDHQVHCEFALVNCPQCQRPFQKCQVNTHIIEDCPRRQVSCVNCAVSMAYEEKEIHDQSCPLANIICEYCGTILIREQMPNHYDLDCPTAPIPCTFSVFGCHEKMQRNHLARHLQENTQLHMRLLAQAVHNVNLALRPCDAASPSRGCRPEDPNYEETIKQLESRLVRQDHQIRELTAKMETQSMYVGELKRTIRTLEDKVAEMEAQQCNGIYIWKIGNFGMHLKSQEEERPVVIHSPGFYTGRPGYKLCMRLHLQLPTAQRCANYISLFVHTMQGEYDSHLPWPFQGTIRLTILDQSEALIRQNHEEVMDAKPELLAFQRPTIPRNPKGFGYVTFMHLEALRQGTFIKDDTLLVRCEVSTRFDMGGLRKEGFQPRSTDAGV

[4] = biological target: Evolutionarily conserved signalling intermediate in Toll pathway (ECSIT), wild type, 6xHis tagged (mouse) (UniProt Q9QZH6)
[5] = biological target: Evolutionarily conserved signalling intermediate in Toll pathway (ECSIT), wild type, 6xHis tagged (mouse) (UniProt Q9QZH6); remark: listed apart in the source

Evolutionarily conserved signalling intermediate in Toll pathway (ECSIT), wild type, 6xHis tagged (from UniProt Q9QZH6 49-435)
binding [1]: binds | binding [2]: binds | binding [3]: binds

NDUFAF1, wild type, Myc tagged (from UniProt Q9CWX2 25-328)
binding [4]: binds

B1: ACAD9, wild type, Myc tagged (protein, UniProt Q8JZN5 42-625)
chain: SFAKELFLGNIEQKGVFPFPEVSQHELSEINQFVGPLEKFFTEEVDSRKIDQEGKIPVDTLEKLKSLGLFGIQVPEEYGGLGLSNTMYARLGEIISLDASITVTLAAHQAIGLKGIILVGNEEQKAKYLPKLSSGEHIAAFCLTEPASGSDAASIQTRATLSEDKKYFILNGSKVWITNGGLANIFTVFAKTEVVDSDGSKTDKMTAFIVERDFGGITNGKPEDKLGIRGSNTCEVHFENTRVPVENVLGEVGGGFKVAMNILNSGRFSMGSAVAGMLKKLIELTAEYACTRKQFNRNLSEFGLIQEKFALMAQKAYVMESMAYLTSGMLDQPGFPDCSIEAAMVKVFSSEAAWQCVSEALQILGGSGYMKDYPYERMLRDARILLIFEGTNEILRLFIALTGLQHAGRILTSRIKELKSGNVTTVMETIGRKLRDSLGRTVDLGLTGDLGVVHPSLGDSANKLEENVHYFGRTVETLLLRFGKNIVEEQLVLKRVANILINLYGMTAVLSRASRSIRIGLRNHDHEVLLANMFCVEAYFQNLFSLSQLDKNAPENLDEQIKKVSRQILEKRAYICAHPLDRAS
binding [5]: binds
